Reference: PMC6834594, “Structure and regulation of ZCCHC4 in m^6A-methylation of 28S rRNA” (Nature Communications, 2019)
Residue numbers refer to the chain shown, from its start. The exact form of at least one protein or probe is not confirmed. At least one verdict was read from the data and is not stated in words by the source. Tags and fusion partners may be left off the protein sequences shown.

Assays:
Test in all cases: EMSA
ZCCHC4 D341A (human) = molecular target: T1, ZCCHC4 D341A (human) (UniProt Q9H5U6); settings: EMSA: 20 mM Tris-HCl pH 7.5, 100 mM NaCl, 5% glycerol, 1 mM DTT, 4 C, 1 h; 0.3 uM RNA with 0-1.2 uM protein unless noted; 6% TBE native gel; recombinant …; residues 24-513; protein details: His6-SUMO removed by ULP1; label: none (SYBR Gold stain)
T1 sequence (looked up): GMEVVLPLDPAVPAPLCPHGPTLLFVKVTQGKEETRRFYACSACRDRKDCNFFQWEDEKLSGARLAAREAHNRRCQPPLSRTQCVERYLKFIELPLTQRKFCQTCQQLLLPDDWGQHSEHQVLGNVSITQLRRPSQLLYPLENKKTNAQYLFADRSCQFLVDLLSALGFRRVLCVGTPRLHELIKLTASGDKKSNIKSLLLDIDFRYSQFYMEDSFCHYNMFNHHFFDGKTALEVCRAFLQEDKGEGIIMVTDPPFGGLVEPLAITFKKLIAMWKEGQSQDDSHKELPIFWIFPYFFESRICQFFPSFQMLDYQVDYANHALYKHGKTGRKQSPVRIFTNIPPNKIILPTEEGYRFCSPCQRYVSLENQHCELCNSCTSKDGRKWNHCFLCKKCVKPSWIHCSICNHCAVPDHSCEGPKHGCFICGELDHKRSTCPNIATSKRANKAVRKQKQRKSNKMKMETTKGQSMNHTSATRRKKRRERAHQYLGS

ZCCHC4 Y340A (human) = molecular target: T2, ZCCHC4 Y340A (human) (UniProt Q9H5U6); settings: EMSA: 20 mM Tris-HCl pH 7.5, 100 mM NaCl, 5% glycerol, 1 mM DTT, 4 C, 1 h; 0.3 uM RNA with 0-1.2 uM protein unless noted; 6% TBE native gel; recombinant …; residues 24-513; protein details: His6-SUMO removed by ULP1; label: none (SYBR Gold stain)
T2 sequence (looked up): T1 sequence (looked up) with Y317A, A318D

ZCCHC4 K403A (human) = molecular target: T3, ZCCHC4 K403A (human) (UniProt Q9H5U6); settings: 0.3 uM protein, 0.6 uM RNA; EMSA: 20 mM Tris-HCl pH 7.5, 100 mM NaCl, 5% glycerol, 1 mM DTT, 4 C, 1 h; 0.3 uM RNA with 0-1.2 uM protein unless noted; 6% TBE native gel; recombinant protein; residues 24-513; protein details: His6-SUMO removed by ULP1; label: none (SYBR Gold stain)
T3 sequence (looked up): T1 sequence (looked up) with A318D, K380A

ZCCHC4 W78A (human) = molecular target: T4, ZCCHC4 W78A (human) (UniProt Q9H5U6); settings: 0.3 uM protein, 0.6 uM RNA; EMSA: 20 mM Tris-HCl pH 7.5, 100 mM NaCl, 5% glycerol, 1 mM DTT, 4 C, 1 h; 0.3 uM RNA with 0-1.2 uM protein unless noted; 6% TBE native gel; recombinant protein; residues 24-513; protein details: His6-SUMO removed by ULP1; label: none (SYBR Gold stain)
T4 sequence (looked up): T1 sequence (looked up) with W55A, A318D

ZCCHC4 D276A (human) = molecular target: T5, ZCCHC4 D276A (human) (UniProt Q9H5U6); settings: 0.3 uM protein, 0.6 uM RNA; EMSA: 20 mM Tris-HCl pH 7.5, 100 mM NaCl, 5% glycerol, 1 mM DTT, 4 C, 1 h; 0.3 uM RNA with 0-1.2 uM protein unless noted; 6% TBE native gel; recombinant protein; residues 24-513; protein details: His6-SUMO removed by ULP1; label: none (SYBR Gold stain)
T5 sequence (looked up): T1 sequence (looked up) with D253A, A318D

Measured: binding result

CGGUACACCUGUCAAACGGUAACGCAGGUG [30-mer 28S rRNA]
binds: all assays above
